The results in this text go back to PubChem BioAssay AID2685 (National Center for Advancing Translational Sciences (NCATS), 2010).

What is called AC50 is the concentration at which the activity in the assay is half-maximal.

Structures are written as SMILES. This is one part of the list. Shown are side measurements of this screen, not its main read-out; they come without a call. Most of these compounds were active or inconclusive in the main read-out, so they are no random draw. Potencies come from curve fits of mixed quality, noted in brackets.

The experiment can be described thus: qHTS Assay for Lipid Storage Modulators in Drosophila S3 Cells.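 As to cell number change: cells counted by Cell Tracker Red CMTPX staining in the red channel.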 As to conditions: BODIPY lipid droplet fluorescence, 18-24 h; for cell number change: measured here: cell count max response, cells fed with added oleic acid. The method, boiled down:
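Laser-scanning cytometry quantifies lipid droplet accumulation (500–530 nm total intensity; droplet/cell object ratio) in oleic acid-fed (400 uM added) Drosophila S3 cells treated with a concentration series. 20 uM Triacsin C defined 100% inhibition.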

Setting [1] is: measured here: cell number channel AC50, cells fed with added oleic acid.
Where [2] appears, read: measured here: lipid fluorescence (Fed channel) AC50, cells fed with added oleic acid.

Regarding `CCOC(=O)c1nnn(CC(=O)Nc2cc(F)ccc2F)c1C(=O)OCC`, the cell number change worked out at 35.6%. Moreover, the AC50 under setting [1] was 1.84 µM [rising, partial curve].

`COc1ccc(C(C#N)N2N=C(C)CC2c2ccccc2)cc1OC` (stereo not drawn): the cell number change is 21.1%. In addition, the half-maximal activity concentration (AC50) under setting [1] was 0.00411 µM [rising, full curve, poor fit].

As for `CCOc1ccc(NC(=O)c2ccc(NC(=O)C3CCCO3)cc2)cc1` (stereo not drawn), the cell number change worked out at 8.57%. The half-maximal activity concentration (AC50) under setting [2] is 29.1 µM [rising, single point].

Turning to `COc1ccc(Br)cc1CN(C)C(C)C(=O)Nc1cc([N+](=O)[O-])ccc1OC` (stereo not drawn), the cell number change stood at 16.2%. Also, the AC50 under setting [2] was 0.731 µM [rising, full curve, poor fit].

Consider `Cc1ccccc1C(=O)N(Cc1cccs1)C1CCS(=O)(=O)C1` (stereo not drawn), for which the cell number change is -9.52%. Besides, under setting [2], the half-maximal activity concentration (AC50) is 16.4 µM [rising, single point].

Consider `N#Cc1c(NCCO)nc(NCc2ccccc2)c2c1CCN(Cc1ccccc1)C2`, for which the cell number change was -15.6%. Moreover, the AC50 under setting [2] is 29.1 µM [rising, single point].

`O=C(Nc1ccc2c(c1)OCO2)C1CCN(S(=O)(=O)c2cccs2)CC1`: the cell number change is -24.3%. The half-maximal activity concentration (AC50) under setting [2] was 8.2 µM [falling, full curve, poor fit].

As to `COc1ccc(-c2[nH]n(-c3ccc([N+](=O)[O-])cc3)c(=O)c2C=NCc2ccc(F)cc2)cc1`, the cell number change was -33.2%. In addition, the AC50 under setting [1] is 10.3 µM [falling, partial curve, poor fit].

On to `Cc1ccc2cc(CN(C(=O)c3cccnc3)C(C)C)c(=O)[nH]c2c1`, for which the cell number change worked out at 32.7%. For the same compound, the AC50 under setting [1] is 0.731 µM [rising, full curve, poor fit].

Turning to `O=C(Oc1ccc2ccc(O)cc2c1)C1CCCCC1`, the cell number change was -20%. Further, the AC50 under setting [2] is 0.517 µM [falling, single point].

For the compound `COc1cccc(N2CCN(C(=O)c3ccc(Cl)c(NC4=NC5CS(=O)(=O)CC5S4)c3)CC2)c1` (stereo not drawn), the AC50 under setting [2] is 29.1 µM [rising, single point].

Consider `CCOC(=O)c1cnc2c(C)c(Cl)ccc2c1N1CCOCC1`, for which the cell number change was found to be 9.96%.

On to `O=C(Cn1nnc(-c2ccc(F)cc2)n1)N1CCCCC1`, for which the cell number change is -19.4%. The AC50 under setting [2] was 20.6 µM [falling, single point].

As to `COc1ccc(CCN(Cc2ccccn2)C(=S)Nc2ccccc2C)cc1OC`, the cell number change came to 55.6%. In addition, under setting [1], the AC50 is 29.1 µM [rising, single point]. Under setting [2], the concentration at half-maximal activity (AC50) is 29.1 µM [rising, partial curve, poor fit].

For `CC(=O)c1cccc(-n2nnnc2SCC(=O)Nc2cc(C)on2)c1`, the cell number change was -11.5%. Moreover, under setting [2], the AC50 is 6.51 µM [rising, single point].

For the compound `O=C(c1cc2ccccc2oc1=O)N1CCCCCCC1`, the cell number change was 2.75%. Further, under setting [2], the AC50 is 0.58 µM [falling, single point].

For `Cc1ccc(CN2C(=O)N/C(=C\c3ccc(N4CCOCC4)cc3)C2=O)cc1`, the cell number change was -15.2%.

For `CCOC(=O)C1=C(O)c2ccccc2C(=O)/C1=C\c1ccc(C)cc1`, the cell number change is -97.6%. Moreover, the AC50 under setting [1] is 23.1 µM [falling, partial curve]. Also, the AC50 under setting [2] is 7.31 µM [falling, partial curve].

As to `CSCc1cc(N(C)C)nc(SCc2ccc(Cl)cc2Cl)n1`, the cell number change is -26.9%. Further, the concentration at half-maximal activity (AC50) under setting [2] was 7.31 µM [falling, partial curve, poor fit].

Take `Cc1cc(Cl)ccc1Oc1nc(-c2ccc(F)cc2)ccc1C#N`: the cell number change was determined as 87.9%. Further, the AC50 under setting [1] was 29.1 µM [rising, single point].

On to `Cc1c(O)nc(SCC(=O)Nc2ccc3c4c(cccc24)CC3)n(-c2ccc(F)cc2)c1=O`, for which the cell number change was 32.1%. The AC50 under setting [1] is 5.8 µM [rising, partial curve].

In the case of `Cc1nnc(NC(=O)CS(=O)(=O)Cc2ccccc2)s1`, the cell number change is 4.84%.

Turning to `Cc1cc(C)n(C(=O)CSc2ccc(Cl)cc2)n1`, the cell number change stood at 3.07%.

Consider `C=CCN=C1CC(C)(C)C(C(=O)OC)C(O)=C1C(=O)CCC` (stereo not drawn), for which the cell number change turned out to be 14.8%. Further, the AC50 under setting [2] is 0.517 µM [rising, full curve].

`Cc1nc2cc(-c3ccc(F)cc3)nn2c(N2CCOCC2)c1C`: the cell number change came to 6.03%.

On to `Cc1ccc(CC(=O)N2CCN(c3ccc([N+](=O)[O-])cc3)CC2)cc1`, for which the AC50 under setting [2] is 20.6 µM [falling, partial curve].

For the compound `COc1ccccc1NC(=O)c1nnn(CC(=O)Nc2cccc(SC)c2)c1N`, the AC50 under setting [1] is 5.17 µM [rising, partial curve].

With `CN(CC(=O)c1c(N)n(C)c(=O)n(C)c1=O)c1ccccc1`, the cell number change was 1.91%. Besides, the AC50 under setting [1] was 0.116 µM [falling, full curve, poor fit].

As to `COc1ccc(NC(=O)CN(C)C(=O)c2ccc(N3CCOCC3)c([N+](=O)[O-])c2)cc1`, the AC50 under setting [1] is 0.00517 µM [falling, full curve, poor fit].

Turning to `O=c1c([N+](=O)[O-])c(N2CCCCCC2)c2ccccc2n1-c1ccccc1`, the cell number change was -67.2%. For the same compound, under setting [1], the AC50 was 18.4 µM [falling, partial curve]. Besides, the AC50 under setting [2] was 23.1 µM [falling, partial curve].

Take `COc1ccc(-c2cc3ccccc3n2CC(O)CNC(CO)(CO)CO)cc1` (stereo not drawn): the cell number change was -8.67%.

For `COc1cc2c(cc1OC)CN(C(=O)c1ccc(S(=O)(=O)N3CCCC3)cc1)CC2`, the cell number change turned out to be 15.6%. Under setting [2], the concentration at half-maximal activity (AC50) was 29.1 µM [rising, single point].

Consider `C=CCn1c(-c2cccs2)nc2ccccc21`, for which the cell number change is -7.89%.

Turning to `Cc1ccc(NC(=S)NCc2ccc(S(N)(=O)=O)cc2)cc1Cl`, the cell number change was -17.3%. The concentration at half-maximal activity (AC50) under setting [1] was 0.651 µM [falling, full curve, poor fit]. The AC50 under setting [2] is 0.651 µM [falling, single point].

With `CC(CC1C(C#N)=C(N)SC(N)=C1C#N)c1ccccc1` (stereo not drawn), the cell number change amounted to 14%. The AC50 under setting [2] is 4.61 µM [rising, partial curve, poor fit].

`COc1ccc2c(C=O)c[nH]c2c1`: the cell number change was found to be 10.7%. For the same compound, under setting [2], the AC50 was 0.461 µM [rising, full curve].

For `COC(/C(=N/O)c1ccc(Cl)cc1)c1ccccc1` (stereo not drawn), the cell number change is -76.8%. Moreover, the half-maximal activity concentration (AC50) under setting [1] is 10.3 µM [falling, partial curve]. In addition, the half-maximal activity concentration (AC50) under setting [2] is 8.2 µM [falling, partial curve].

Take `CSc1ccccc1NC(=S)NC1CCCCC1`: the cell number change is -24.3%. Also, the AC50 under setting [2] is 32.6 µM [falling, single point].

On to `Cc1nc(NNC(=O)c2ccc([N+](=O)[O-])cc2)cc(-c2ccccc2)n1`, for which the cell number change was -2.41%. In addition, the AC50 under setting [2] was 6.51 µM [falling, single point].

Consider `N#C/C(=C\c1cn(CCOc2ccccc2)c2ccccc12)C(=O)NCc1ccco1`, for which the half-maximal activity concentration (AC50) under setting [2] was 4.11 µM [rising, full curve, poor fit].
